The source of these data is PubChem BioAssay AID2685 (National Center for Advancing Translational Sciences (NCATS), 2010).

The structures appear in SMILES notation. The list shows a part of the results. Further columns of the screen follow, without active or inactive calls. Most of these compounds were active or inconclusive in the main read-out, so they are no random draw. Words in brackets tell the shape of the fitted curve; partial curves, single points and poor fits give uncertain potencies.

The test in a line: qHTS Assay for Lipid Storage Modulators in Drosophila S3 Cells.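 As to cell number change: cells counted by Cell Tracker Red CMTPX staining in the red channel.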 The following applies: BODIPY lipid droplet fluorescence, 18-24 h; for cell number change: measured here: cell count max response, cells fed with added oleic acid. In outline: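 Drosophila S3 cells loaded with oleic acid (400 uM, as added) and compounds at several concentrations; lipid droplets imaged by 488-nm laser-scanning cytometry, 500–530 nm intensity and object ratio to cell channel. Percent activity normalized to 20 uM Triacsin C.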
(In general: In qHTS, concentration-response curves come from the screen itself.)

[1] abbreviates: measured here: lipid fluorescence (Fed channel) AC50, cells fed with added oleic acid.
Setting [2] is: measured here: cell number channel AC50, cells fed with added oleic acid.

Consider `Cc1ccc(NS(=O)(=O)c2c(C)ccc3nsnc23)c([N+](=O)[O-])c1`, for which the cell number change is -26.1%. As to `CCOC(=O)Cc1nc(-c2ccccc2)n[nH]1`, the cell number change was determined as 9.78%.

The term AC50 denotes the concentration giving half of the maximal activity seen. Regarding `COc1ccc(/C=N/NC(=O)c2cc(C34CC5CC(CC(C5)C3)C4)[nH]n2)cc1O`, the cell number change is -41.2%. Also, the AC50 under setting [1] was 6.51 µM [rising, single point]. Turning to `Cc1cccc(N=Nc2c(O)[nH]c3ccc(Br)cc23)c1`, the cell number change was -1.12%. In addition, the AC50 under setting [1] is 29.1 µM [falling, single point]. In the case of `CCn1c(-c2ccco2)n[nH]c1=S`, the cell number change turned out to be 1.68%. Also, the AC50 under setting [2] was 0.206 µM [falling, full curve, poor fit]. Under setting [1], the AC50 is 1.46 µM [falling, partial curve]. On to `NC(=S)N=Nc1c(O)n(C2OC(=O)c3ccccc32)c2ccccc12` (stereo unspecified), for which the AC50 under setting [1] was 0.164 µM [rising, full curve, poor fit].

In the case of `CCCN1C(=O)c2ccccc2NC1c1ccc(O)c(OCC)c1` (stereo unspecified), the cell number change was -15.3%. Besides, under setting [1], the concentration at half-maximal activity (AC50) was 29.1 µM [rising, single point].

On to `O=C(Cc1ccc(-c2ccccc2)cc1)NC1CCCC1`, for which the cell number change stood at 29.5%.

Regarding `O=C(Nc1cc(S(=O)(=O)N2CCOCC2)ccc1Oc1ccc(F)cc1)C1=COCCO1`, the cell number change turned out to be 31.7%. Further, the AC50 under setting [2] was 23.1 µM [rising, single point]. For `COc1ccc(NC2=C(NCCO)C(=O)c3ccccc3C2=O)cc1`, the cell number change was -76.8%. Also, the AC50 under setting [2] was 23.1 µM [falling, partial curve]. Also, the AC50 under setting [1] is 16.4 µM [falling, partial curve].

For `O=C(CN1CCCC1)NC12CC3CC(CC(C3)C1)C2`, the cell number change stood at 37.6%. Besides, the AC50 under setting [2] was 29.1 µM [rising, single point]. Besides, the AC50 under setting [1] was 6.51 µM [falling, single point]. For `COc1ccc2nc(-c3ccccc3)nc(C3CCCCC3)c2c1`, the cell number change is 1.85%. Further, under setting [1], the AC50 is 6.51 µM [falling, partial curve, poor fit]. Take `CCCCN(C)C(=O)CCCCn1c(=O)[nH]c2cc(OCC)c(OCC)cc2c1=O`: the cell number change is -26.3%. The concentration at half-maximal activity (AC50) under setting [1] is 32.6 µM [falling, partial curve, poor fit].

On to `Oc1ccccc1N1CCN(CC(O)COCc2ccccc2Cl)CC1` (stereo unspecified), for which the cell number change was found to be 82.6%. The AC50 under setting [1] is 0.291 µM [falling, partial curve, poor fit]. Consider `COc1nnc(-c2ccc(C)c(S(=O)(=O)NC(C)C)c2)c2ccccc12`, for which the cell number change was -32.2%. Moreover, the AC50 under setting [1] is 29.1 µM [falling, single point]. Turning to `CS(=O)(=O)Nc1cccc(-c2cn3c(n2)SCC3)c1`, the cell number change is -2.09%. In addition, under setting [1], the AC50 was 29.1 µM [rising, single point].

For `CC(C)Cc1nc(N2CCN(C(=O)C(C)C)CC2)c(C#N)c2c1CCC2`, the cell number change was -22.2%. Also, the AC50 under setting [1] is 23.1 µM [falling, single point]. As to `Cc1cccc(N2CCN(C(=O)c3cccc(N4C(=O)C5CC=CC(C)C5C4=O)c3)CC2)c1C` (stereo unspecified), the AC50 under setting [1] is 6.51 µM [falling, single point]. In the case of `CC(=O)c1ccc(Oc2cnccn2)cc1`, the cell number change was determined as 24.3%. In addition, the AC50 under setting [1] is 29.1 µM [rising, single point]. Turning to `Cc1ccc(S(=O)(=O)N(CC(=O)N/N=C/c2ccccc2C(=O)O)c2cc(Cl)cc(Cl)c2)cc1`, the cell number change was -25.4%. Moreover, the AC50 under setting [1] was 4.11 µM [rising, partial curve]. On to `O=Cc1c(Cl)cccc1Cl`, for which the cell number change was -16.5%. Also, the AC50 under setting [1] was 1.16 µM [rising, single point]. On to `COc1ccc(-n2c(SCC#N)nc3ccccc3c2=O)cc1`, for which the cell number change came out at 7.29%. The concentration at half-maximal activity (AC50) under setting [1] was 0.82 µM [rising, full curve]. `O=C1NCC(O)=C1C=NCCO`: the cell number change is -54.1%. In addition, under setting [2], the AC50 was 1.64 µM [falling, full curve]. In the case of `O=C(Nc1ccccc1C(=O)O)c1ccc2ccccc2n1`, under setting [2], the AC50 is 0.82 µM [falling, full curve, poor fit]. With `COc1ccc(S(=O)(=O)N(C)CC(=O)NCc2ccco2)cc1OC`, the cell number change came to 14.5%.

Consider `c1ccc(COc2cccc(CNCc3ccccn3)c2)cc1`, for which the cell number change was -15.4%. Further, the AC50 under setting [2] is 0.00461 µM [falling, full curve, poor fit]. For `Cc1ccc(NC(=O)CCC(=O)NNC(=O)c2ccccc2[N+](=O)[O-])c(C)c1`, the cell number change is -29.4%. Also, the AC50 under setting [2] was 0.58 µM [falling, full curve, poor fit]. In addition, under setting [1], the AC50 was 2.91 µM [falling, single point]. Take `O=C(Nc1ccccc1)C1CC2CCC1C2` (stereo unspecified): the cell number change is 3.03%. Also, the AC50 under setting [1] is 2.31 µM [rising, single point]. For the molecule `Cc1[nH]c(C)c(S(=O)(=O)NCc2ccc(F)cc2)c1C(=O)N1CCCCC1`, the cell number change is -17.1%. Besides, under setting [1], the AC50 was 0.58 µM [rising, single point].

For the molecule `O=C(O)c1cccc(NC(=O)c2ccc(N3C(=O)c4ccc(C(=O)Nc5cccc(C(=O)O)c5)cc4C3=O)cc2)c1`, the cell number change is 26.5%. The AC50 under setting [1] is 4.11 µM [falling, single point]. On to `Cc1cccc(NCC(=O)NNC(=S)Nc2ccccc2)c1`, for which the cell number change was 8.66%. The AC50 under setting [2] was 0.326 µM [falling, single point]. Regarding `Cc1nc(C)c(C(=O)Nc2cccc(F)c2)s1`, the cell number change is 13.5%. With `O=C(Nc1ccc(F)cc1)C(Sc1nc2ccccc2[nH]1)c1ccccc1` (stereo unspecified), under setting [1], the AC50 is 14.6 µM [rising, partial curve, poor fit].

As for `COc1ccc(NC(=O)C#Cc2ccccc2)cc1`, the AC50 under setting [1] was 1.46 µM [falling, full curve]. For `Cc1cc(C)cc(C(=O)Nc2ccc(N3CCCC3)cc2)c1`, the cell number change amounted to 5.65%. Under setting [1], the AC50 is 0.112 µM [falling, full curve, poor fit]. For the molecule `CCN1CCN(C(=O)C2CCCN(c3ncnc4c3nc3n4CCCCC3)C2)CC1` (stereo unspecified), the cell number change is 42.2%. For the same molecule, the AC50 under setting [2] was 29.1 µM [rising, single point]. Regarding `CN(c1ccccc1)S(=O)(=O)c1cccc(C(=O)NC2CCCCC2)c1`, the cell number change was -17.6%. Also, the AC50 under setting [1] was 14.6 µM [rising, single point]. In the case of `C=CCn1c(NC(=O)c2ccccc2Cl)c(C#N)c2nc3ccccc3nc21`, the cell number change was -21%. Besides, the concentration at half-maximal activity (AC50) under setting [1] is 2.31 µM [falling, partial curve, poor fit]. On to `CCN(CC)S(=O)(=O)c1cc(NC(=O)CSc2nc3c(cc2C#N)C(=O)CC(C)(C)C3)ccc1C`, for which the cell number change is -3.75%. For `COc1cc(/C=C\C(=O)Nc2cc(=O)n(C)c(=O)n2C)cc(OC)c1OC`, the cell number change was -37.9%. Also, the AC50 under setting [1] was 14.6 µM [falling, single point]. As for `Cc1ccnc(NC(=O)COc2ccc3c(c2)CCC3)c1`, the cell number change is -4.64%. Under setting [1], the AC50 is 5.17 µM [falling, single point]. In the case of `O=C(Nc1ccc2sccc2c1)c1ccc(Cl)s1`, under setting [1], the AC50 was 2.06 µM [falling, partial curve].

Regarding `CCCCCn1nnc2c(=O)oc3ccccc3c21`, the cell number change was -9.99%. Still for that read-out and setting: as for `O=C(NCCc1c[nH]c2ccccc12)c1ccc2c(c1)OCO2`, the figure is -25%.

Take `CCN1CCN(S(=O)(=O)c2ccc(Cl)c(C(=O)Nc3ccccc3N3CCCC3)c2)CC1`: the cell number change turned out to be 22.2%. The AC50 under setting [1] was 18.4 µM [rising, single point]. In the case of `O=C(C1CCCCC1)N(CCN1CCCC1)c1nc2ccccc2s1`, the cell number change worked out at 18.5%. Under setting [2], the AC50 was 0.651 µM [rising, full curve, poor fit]. Under setting [1], the AC50 was 2.31 µM [rising, full curve].

Turning to `C/C(=N\NC(=O)c1ccc(NS(=O)(=O)c2cccs2)cc1)c1ccccc1`, the cell number change amounted to 48.3%. For the same molecule, the AC50 under setting [2] is 18.4 µM [rising, single point]. Besides, under setting [1], the AC50 was 29.1 µM [rising, single point]. With `CC1(C)ON(C2CCCCC2)[C@H]2c3nc4ccccc4n3C[C@H]21`, the cell number change worked out at 4.49%. With `C=CCN1C(=O)CSc2ccc(C(=O)NCc3ccc(F)cc3)cc21`, the cell number change was -46.9%. For the same molecule, the AC50 under setting [2] was 29.1 µM [falling, single point].

Regarding `CC(C)n1c(=S)[nH]c2ccccc2c1=O`, the cell number change was -32.1%. Under setting [2], the AC50 was 10.3 µM [falling, partial curve]. For `Cc1nnc2n1NC(c1ccc(Cl)cc1)C(C(=O)N(C)C1CCCCC1)S2` (stereo unspecified), the cell number change worked out at 13.5%. For the same molecule, the AC50 under setting [1] was 6.51 µM [rising, partial curve, poor fit]. Take `O=[N+]([O-])c1ccc(C(O)CN=Cc2ccc(O)cc2O)cc1` (stereo unspecified): the cell number change was -65.2%. In addition, the AC50 under setting [2] was 9.2 µM [falling, partial curve]. Under setting [1], the AC50 was 8.2 µM [falling, partial curve]. Take `COc1cc(C(O)c2nc3ccccc3s2)cc(OC)c1OC` (stereo unspecified): the cell number change was -51.5%. For the same molecule, the half-maximal activity concentration (AC50) under setting [2] is 16.4 µM [falling, partial curve, poor fit]. Further, the AC50 under setting [1] was 14.6 µM [falling, partial curve, poor fit]. Take `C[C@@H](NC(=O)c1nc[nH]c1C(=O)NC1CCN(C(=O)OC(C)(C)C)CC1)c1ccccc1`: the cell number change is -22.7%. Under setting [1], the AC50 was 0.103 µM [rising, full curve, poor fit]. With `O=C(CSCc1ccc(Cl)cc1)N/N=C/c1c(Cl)cccc1Cl`, the cell number change was -25.7%. The AC50 under setting [1] is 29.1 µM [falling, single point]. `Cc1ccc(S(=O)(=O)NCC2CCC(C(=O)NCc3ccc4c(c3)OCO4)CC2)cc1` (stereo unspecified): the cell number change was found to be 65.3%. The AC50 under setting [2] is 2.91 µM [rising, partial curve].

For the molecule `CCCn1c(C)nc2cc(Cl)c(N3CCN(c4nc(-c5ccc(C)cc5)cs4)CC3)cc21`, the cell number change was -2.59%. On to `CCOC(=O)CN(C)C(=O)CCc1nnc(-c2ccc(-c3ccccc3)cc2)o1`, for which the cell number change stood at 15.5%. `Cc1ccc(C(=S)N2CCCCCC2)cc1`: the cell number change is -17.3%. The AC50 under setting [1] is 0.731 µM [rising, full curve]. On to `N/C(=N\OC(=O)Cc1ccc(-c2ccccc2)cc1)c1cccc([N+](=O)[O-])c1`, for which the cell number change was -4.83%. As to `Cc1cc(NC(=O)CSc2nc(-c3cccs3)cc(C(F)(F)F)n2)no1`, the AC50 reads like this: under setting [2], 0.461 µM [rising, single point]; under setting [1], 1.16 µM [rising, partial curve]. `CC(NC(=O)c1ccc(Cl)cc1)C(=O)N1CCCCC1` (stereo unspecified): the cell number change is -4.83%. For the same molecule, the AC50 under setting [2] was 6.51 µM [falling, single point]. Regarding `C[C@@]12C(=O)Nc3cc(F)ccc3C(=O)N1[C@H]1c3ccccc3OC[C@@H]1[C@@H]2c1ccccc1`, the cell number change turned out to be 15.4%. Besides, under setting [1], the AC50 was 0.517 µM [rising, full curve, poor fit].
